These results are taken from publication PMC5228053.

Protein sequences, listed by entry. Tags and fused reporters are not part of them.
UniProt P14618: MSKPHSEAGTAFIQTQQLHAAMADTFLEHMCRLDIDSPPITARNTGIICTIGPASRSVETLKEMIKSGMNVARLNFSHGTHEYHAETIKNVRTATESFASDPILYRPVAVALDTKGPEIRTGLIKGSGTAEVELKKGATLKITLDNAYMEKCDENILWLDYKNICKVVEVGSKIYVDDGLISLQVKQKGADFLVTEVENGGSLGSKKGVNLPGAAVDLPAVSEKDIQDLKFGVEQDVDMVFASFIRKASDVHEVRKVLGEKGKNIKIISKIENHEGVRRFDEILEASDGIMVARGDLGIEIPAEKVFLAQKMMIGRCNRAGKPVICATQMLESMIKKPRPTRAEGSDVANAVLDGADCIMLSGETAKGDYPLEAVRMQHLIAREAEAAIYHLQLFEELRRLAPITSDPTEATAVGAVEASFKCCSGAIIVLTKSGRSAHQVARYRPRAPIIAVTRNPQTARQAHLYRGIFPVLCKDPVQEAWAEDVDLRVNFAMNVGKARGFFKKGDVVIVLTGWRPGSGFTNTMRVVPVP

The target of this test is T1, synaptosome-associated protein 23 (SNAP-23) (human (endogenous in A549)) (UniProt O00161).
T1 sequence: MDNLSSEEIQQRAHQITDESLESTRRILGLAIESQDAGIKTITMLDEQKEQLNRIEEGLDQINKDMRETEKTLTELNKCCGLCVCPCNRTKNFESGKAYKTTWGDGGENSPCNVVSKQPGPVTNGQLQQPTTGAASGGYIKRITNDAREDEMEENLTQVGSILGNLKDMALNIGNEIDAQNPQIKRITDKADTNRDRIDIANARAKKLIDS
The test can be described thus: co-IP; endogenous proteins; A549 cell lysate pre-cleared with control IgG (legend: isolated exosome fraction from A549 cells); IP with anti-SNAP-23 or anti-PKM2 antibody or normal IgG, protein G-agarose; lysis buffer 20 mM Tris-HCl, 150 mM NaCl, 0.5% Nonidet P-40, 2 mM EDTA, 0.5 mM DTT, pH 7.4; blotted in a cross manner.

No constants are given. Whether binding was seen depends on the method and setting. In cells and extracts the contact can be indirect. Some entries that bind do so weakly or less than the wild type.

Turning to “pyruvate kinase type M2 (PKM2) (from UniProt P14618 1-531) (enzyme)”, the binding result is listed as “binds”.
